Amino acid sequences for entries named in this document (tags omitted). Residues count along the entry.
UniProt Q96EB6, 2-747 limits assumed: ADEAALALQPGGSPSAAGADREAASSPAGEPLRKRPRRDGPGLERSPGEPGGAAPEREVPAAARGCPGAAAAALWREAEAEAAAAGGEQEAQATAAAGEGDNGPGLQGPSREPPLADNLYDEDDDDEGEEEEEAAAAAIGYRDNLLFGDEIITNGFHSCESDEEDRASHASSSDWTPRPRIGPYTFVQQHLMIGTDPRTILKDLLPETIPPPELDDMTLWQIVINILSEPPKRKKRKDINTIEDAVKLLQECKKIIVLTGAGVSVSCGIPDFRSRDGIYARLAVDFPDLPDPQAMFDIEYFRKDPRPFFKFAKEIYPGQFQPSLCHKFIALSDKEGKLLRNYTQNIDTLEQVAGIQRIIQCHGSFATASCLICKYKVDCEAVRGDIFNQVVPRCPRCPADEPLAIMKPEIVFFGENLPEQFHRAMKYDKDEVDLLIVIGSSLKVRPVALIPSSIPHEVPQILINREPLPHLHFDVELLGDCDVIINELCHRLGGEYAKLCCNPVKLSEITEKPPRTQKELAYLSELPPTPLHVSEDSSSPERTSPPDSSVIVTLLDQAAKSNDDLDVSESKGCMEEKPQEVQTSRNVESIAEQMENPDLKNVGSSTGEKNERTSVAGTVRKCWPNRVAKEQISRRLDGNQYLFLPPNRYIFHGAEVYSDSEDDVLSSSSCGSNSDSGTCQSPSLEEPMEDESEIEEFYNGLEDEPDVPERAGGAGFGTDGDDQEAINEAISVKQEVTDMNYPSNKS

The full ranking holds about 3,200 compounds; the median of “TSA(without NAD+) / Primary screening (TSA) / delta Tm (K)” is about -0.07, and the highest 2% start at about 0.37. The list shows a part of the results.
What follows are compounds tested against NAD-dependent deacetylase Sirtuin 1 (human, UniProt Q96EB6) (assay: primary screen, delta tm). Settings: 10 µM.
Parameters: single well (n = 1)
Description: A total of 3,192 compounds extracted from the proposed lists were first screened by thermal shift assay (TSA), which determined a melting temperature shift (ΔTm) of Sirtuin 1 upon the addition of a test compound at a concentration of 10 µM (n = 1) with primary hit criteria of ΔTm > 0.45 K or ΔTm < −1.5 K. Primary hits (48 compounds) were retested in the same assay at three concentrations (5, 10, 20 µM, n = 4) for hit confirmation and for dose-dependency check. Secondary hits (41 compounds) were checked their selectivity for Sirtuin 1 based on counterscreening on unrelated protein targets (bovine carbonic anhydrase (CA) and recombinant SH2 domain of hABL1 kinase (ABL1)) at three different concentrations (5, 10, 20 µM, n = 4), which yielded 38 hit compounds, hereafter referred to as TSA hits. The TSA screening above was conducted in the absence of NAD+.
In the case of `COC(=O)NC(CC(C)C)C(=O)N(C)Cc1nc2ccccc2[nH]1` (stereo not drawn), the “TSA(without NAD+) / Primary screening (TSA) / delta Tm (K)” value is reported as 0.02 K. In the case of `CN(C)CCCOC1CCN(c2ncnc3ccc(S(C)(=O)=O)cc23)CC1`, the “TSA(without NAD+) / Primary screening (TSA) / delta Tm (K)” value is reported as -0.08 K. `c1nc(N2CCSCC2)c2[nH]cnc2n1` was tested, and the “TSA(without NAD+) / Primary screening (TSA) / delta Tm (K)” value was 0.06 K. `O=C(O)c1ccc(OCc2cccs2)cc1` was tested, and the “TSA(without NAD+) / Primary screening (TSA) / delta Tm (K)” value was -0.03 K. `CC(OC(=O)COc1ccc2c(c1)CCC2)C(=O)Nc1ccc(C(N)=O)cc1` (stereo not drawn) was tested, and the “TSA(without NAD+) / Primary screening (TSA) / delta Tm (K)” value was -0.07 K. `CN(Cc1ccc(O)cc1)C(=O)C1c2ccccc2Oc2ccccc21` was tested, and the “TSA(without NAD+) / Primary screening (TSA) / delta Tm (K)” value was -0.12 K. With `COc1cccc(C(=O)C2=C(O)C(=O)N(CCCN3CCOCC3)C2c2cccnc2)c1` (stereo not drawn) the “TSA(without NAD+) / Primary screening (TSA) / delta Tm (K)” value was 0.02 K. For `CC(C)c1cc(=O)oc2cc(OCc3ccc(C(N)=O)cc3)ccc12`, the “TSA(without NAD+) / Primary screening (TSA) / delta Tm (K)” value was -0.02 K. In the case of `CN(C)c1c(Cl)cccc1NC(=O)c1ccc(Cl)nc1Cl`, the “TSA(without NAD+) / Primary screening (TSA) / delta Tm (K)” value is reported as 0.09 K. For `Cc1c(CC(=O)O)c(=O)[nH]c2c1c(=O)[nH]n2C`, the “TSA(without NAD+) / Primary screening (TSA) / delta Tm (K)” value was -0.11 K. For `O=C1/C(=C/c2cccc(O)c2)Oc2cc(O)ccc21`, the “TSA(without NAD+) / Primary screening (TSA) / delta Tm (K)” value was -0.21 K. For `CCN(CC(=O)Nc1cc(C(N)=O)cc(C(N)=O)c1)Cc1cccc(F)c1`, the “TSA(without NAD+) / Primary screening (TSA) / delta Tm (K)” value was 0.06 K. With `Cc1ccccc1C(=O)N1CCC(C(=O)NCCc2nc3ccccc3[nH]2)CC1` the “TSA(without NAD+) / Primary screening (TSA) / delta Tm (K)” value was 0.02 K. For `COCC(N)CO` (stereo not drawn), the “TSA(without NAD+) / Primary screening (TSA) / delta Tm (K)” value was -0.23 K. `O=C(Cn1cnc2sccc2c1=O)c1ccc2c(c1)Cc1ccccc1-2` was tested, and the “TSA(without NAD+) / Primary screening (TSA) / delta Tm (K)” value was 0.12 K. For `COc1ccccc1NC(=O)COc1ccc(C(=O)OCC(=O)NCCC2=CCCCC2)cc1OC`, the “TSA(without NAD+) / Primary screening (TSA) / delta Tm (K)” value was -0.15 K. With `CN(C)C(CNC(=O)c1ccc2c(c1)OCC(=O)N2)c1ccco1` (stereo not drawn) the “TSA(without NAD+) / Primary screening (TSA) / delta Tm (K)” value was 0.02 K. In the case of `CCC(CC)NCCN`, the “TSA(without NAD+) / Primary screening (TSA) / delta Tm (K)” value is reported as -0.13 K. `Cc1noc(C)c1C(=O)OCC(=O)Nc1ccc(C(N)=O)cc1` was tested, and the “TSA(without NAD+) / Primary screening (TSA) / delta Tm (K)” value was -0.28 K. `CSc1ccc(NC(=O)C2CC(=O)Nc3cc(F)ccc32)cc1` (stereo not drawn) was tested, and the “TSA(without NAD+) / Primary screening (TSA) / delta Tm (K)” value was -0.22 K. In the case of `COC(=O)c1ccc2[nH]c(CN)nc2c1`, the “TSA(without NAD+) / Primary screening (TSA) / delta Tm (K)” value is reported as -0.18 K. For `Cc1ccc(-c2sc(-c3ccccc3)nc2CC(=O)NNC(=O)C2COc3ccccc3O2)cc1` (stereo not drawn), the “TSA(without NAD+) / Primary screening (TSA) / delta Tm (K)” value was 0.06 K. In the case of `CCC(NC)C(=O)O` (stereo not drawn), the “TSA(without NAD+) / Primary screening (TSA) / delta Tm (K)” value is reported as -0.18 K. `Cc1ccccc1CSc1nc2ccsc2c(=O)n1C` was tested, and the “TSA(without NAD+) / Primary screening (TSA) / delta Tm (K)” value was -0.24 K. For `O=C(CCc1nc2ccccc2o1)Nc1ccc(N2CCN(Cc3ccccc3)CC2)cc1`, the “TSA(without NAD+) / Primary screening (TSA) / delta Tm (K)” value was -0.08 K. With `Cc1ccc(CN(C(=O)NCc2ccco2)C2CCc3ccccc32)cc1` (stereo not drawn) the “TSA(without NAD+) / Primary screening (TSA) / delta Tm (K)” value was 0.17 K. With `O=C(O)C1CC(=O)N(c2ccc(S(=O)(=O)Nc3ccc4c(c3)CCC4)cc2)C1` (stereo not drawn) the “TSA(without NAD+) / Primary screening (TSA) / delta Tm (K)” value was -0.04 K. `COc1ccc(C(=O)NC2CCCC2(C)CO)cc1-c1ccccn1` (stereo not drawn) was tested, and the “TSA(without NAD+) / Primary screening (TSA) / delta Tm (K)” value was -0.14 K. In the case of `O=C1CC(N2CCN(c3cnccn3)CC2)C(=O)N1CCc1ccccc1` (stereo not drawn), the “TSA(without NAD+) / Primary screening (TSA) / delta Tm (K)” value is reported as -0.13 K. With `CCc1cc2c(N3CCCN(CC(N)=O)CC3)ncnc2s1` the “TSA(without NAD+) / Primary screening (TSA) / delta Tm (K)” value was -0.17 K. For `Cc1cc(C(=O)COC(=O)C23CC4CC(CC(O)(C4)C2)C3)c(C)n1-c1c(C)n(C)n(-c2ccccc2)c1=O`, the “TSA(without NAD+) / Primary screening (TSA) / delta Tm (K)” value was -0.33 K. For `COc1cc(CNc2ccc3nnnn3n2)cc(OC)c1OC`, the “TSA(without NAD+) / Primary screening (TSA) / delta Tm (K)” value was -0.04 K. For `CC(C#N)(NC(=O)CNc1cccnc1-c1ccccc1)C1CC1` (stereo not drawn), the “TSA(without NAD+) / Primary screening (TSA) / delta Tm (K)” value was 0.08 K. In the case of `C=CCc1c(C)c(C#N)c2nc3ccccc3n2c1Cl`, the “TSA(without NAD+) / Primary screening (TSA) / delta Tm (K)” value is reported as -0.03 K. `CCOc1ccc(Nc2cc(C)nc3c4c(C)cc(C)nc4nn23)cc1` was tested, and the “TSA(without NAD+) / Primary screening (TSA) / delta Tm (K)” value was -0.23 K. With `NCC(N)C1CC1` (stereo not drawn) the “TSA(without NAD+) / Primary screening (TSA) / delta Tm (K)” value was -0.08 K. `COc1ccc2ccccc2c1C=C1C(=O)NC(=S)NC1=O` was tested, and the “TSA(without NAD+) / Primary screening (TSA) / delta Tm (K)” value was 0.02 K. In the case of `O=C(CN1CCN(C(=O)c2ccccc2Nc2ccccc2)CC1)Nc1ccccc1Cl`, the “TSA(without NAD+) / Primary screening (TSA) / delta Tm (K)” value is reported as -0.12 K. In the case of `CC1CC1C(=O)Nc1ccc(C(=O)NCc2nc3cccnc3[nH]2)cc1` (stereo not drawn), the “TSA(without NAD+) / Primary screening (TSA) / delta Tm (K)” value is reported as -0.04 K. For `NC(=O)N1CCCN(C(=O)c2ccc3c(c2)C(=O)c2ccccc2-3)CC1`, the “TSA(without NAD+) / Primary screening (TSA) / delta Tm (K)” value was -0.21 K. For `CC(C)OC(=O)CC(Nc1ccc2nnnn2n1)c1ccccc1` (stereo not drawn), the “TSA(without NAD+) / Primary screening (TSA) / delta Tm (K)” value was -0.07 K. With `CCC(C)c1ccc(C(NC(C)C(=O)Nc2ccc(C(N)=O)cc2)C(C)C)cc1` (stereo not drawn) the “TSA(without NAD+) / Primary screening (TSA) / delta Tm (K)” value was -0.18 K. In the case of `COc1cccc(CNC(=O)COC(=O)CNC(=O)c2ccc3ccccc3c2)c1`, the “TSA(without NAD+) / Primary screening (TSA) / delta Tm (K)” value is reported as 0.07 K. `COC(=O)c1ccc(Cn2ncc3ccccc3c2=O)cc1` was tested, and the “TSA(without NAD+) / Primary screening (TSA) / delta Tm (K)” value was -0.05 K. With `O=C(CN1CCCC1=O)Nc1ccc2nc(S)[nH]c2c1` the “TSA(without NAD+) / Primary screening (TSA) / delta Tm (K)” value was -0.11 K. `CC(=O)NCc1ccc(-c2csc(NC(=O)C(C)NC(=O)c3cccs3)n2)o1` (stereo not drawn) was tested, and the “TSA(without NAD+) / Primary screening (TSA) / delta Tm (K)” value was 0.12 K. In the case of `CC(CN)CO` (stereo not drawn), the “TSA(without NAD+) / Primary screening (TSA) / delta Tm (K)” value is reported as -0.15 K. For `CC1(c2cccc(C(N)=O)c2)NC(=O)NC1=O` (stereo not drawn), the “TSA(without NAD+) / Primary screening (TSA) / delta Tm (K)” value was 0.02 K. For `Cc1cccc(C(=O)Oc2ccc3oc4ccccc4c3c2)c1`, the “TSA(without NAD+) / Primary screening (TSA) / delta Tm (K)” value was 0.18 K. With `CC(=O)N1CCc2[nH]c3ccc(C)cc3c2C1` the “TSA(without NAD+) / Primary screening (TSA) / delta Tm (K)” value was -0.11 K. In the case of `O=C1/C(=C\c2ccc(Br)cc2)CC/C1=C/c1ccccc1OC(F)F`, the “TSA(without NAD+) / Primary screening (TSA) / delta Tm (K)” value is reported as -0.08 K. In the case of `O=C(CCCCc1c[nH]nn1)Nc1cccn(Cc2ccc(F)cc2)c1=O`, the “TSA(without NAD+) / Primary screening (TSA) / delta Tm (K)” value is reported as -0.12 K. `O=C(NCc1nc2ccccc2[nH]1)/C(=C/c1ccccc1)c1ccccc1` was tested, and the “TSA(without NAD+) / Primary screening (TSA) / delta Tm (K)” value was 0.09 K. With `O=C(NCc1ccc(N2CCCC2=O)cc1)c1ccc(NC(=O)C2CC2)s1` the “TSA(without NAD+) / Primary screening (TSA) / delta Tm (K)” value was 0.18 K. In the case of `CN(C(=O)Cc1ccc(-c2ccccc2)cc1)C1CCc2ccccc21` (stereo not drawn), the “TSA(without NAD+) / Primary screening (TSA) / delta Tm (K)” value is reported as -0.33 K. For `CC(C)(C)c1ccc(OCC(=O)NNC(=O)c2cccnc2O)cc1`, the “TSA(without NAD+) / Primary screening (TSA) / delta Tm (K)” value was 0.17 K. With `CC(=O)Nc1ccc(CNC(=O)c2c(C)[nH]c3ccccc23)cc1` the “TSA(without NAD+) / Primary screening (TSA) / delta Tm (K)” value was 0.05 K. With `COc1ccc(-c2cc(C(=O)Nc3ccc(C(N)=O)cc3)c3ccccc3n2)cc1` the “TSA(without NAD+) / Primary screening (TSA) / delta Tm (K)” value was -0.02 K. For `Clc1cc(Cl)cc(NC(c2cccnc2)c2ncc[nH]2)c1` (stereo not drawn), the “TSA(without NAD+) / Primary screening (TSA) / delta Tm (K)” value was -0.14 K. In the case of `CCOc1ccc(C(=O)C2=C(O)C(=O)N(CCCN3CCOCC3)C2c2ccccn2)cc1` (stereo not drawn), the “TSA(without NAD+) / Primary screening (TSA) / delta Tm (K)” value is reported as -0.17 K. With `CCS(=O)CCN` (stereo not drawn) the “TSA(without NAD+) / Primary screening (TSA) / delta Tm (K)” value was -0.18 K. For `Cc1ccc2nc(-c3ccccc3)c(N)n2c1`, the “TSA(without NAD+) / Primary screening (TSA) / delta Tm (K)” value was -0.17 K. `CC(C)(CNS(=O)(=O)c1ccc(C(N)=O)cc1)c1ccc2c(c1)OCO2` was tested, and the “TSA(without NAD+) / Primary screening (TSA) / delta Tm (K)” value was 0.07 K.
